# Data from PubChem BioAssay AID248 (DTP/NCI, 2004).
# The list is a part of this screen's results and no random one: it gathers tests that were run many times, whatever their T/C, doses with no T/C, and many T/C values between a quarter and a half above the control. Other doses and runs of a compound stand elsewhere. T/C: endpoint of the treated group in % of that of the vehicle group. Some entries give survivors of the animals treated and no T/C: the source files T/C as zero there, which appears to mark a toxic dose or a test without result, not a measured value. Some doses without a T/C left all or most animals alive at the check, yet need not have been tolerated: the source hardly ever lists a survival T/C far under the control, and the zero likely stands for such cases as well. Counts of survivors are from the toxicity check (mostly the fifth day) where no day follows; animals may have died later. Schedules are NCI's codes, read here as Q, the interval in days (D) or hours (H), X, the number of doses.
# System: L1210 leukemia ip in BDF1 mice, survival T/C
# Experiment: NCI In Vivo Anticancer Drug Screen. Data for tumor model L1210 Leukemia (intraperitoneal) in B6D2F1 (BDF1) mice
# Details: T/C endpoint: mean survival time, higher T/C = longer survival
# [1] = dose: 200.0 mg/kg/injection, schedule: Q01DX001 (ip), vehicle: saline
# [2] = dose: 400.0 mg/kg/injection, schedule: Q01DX001 (ip), vehicle: saline
# [3] = dose: 100.0 mg/kg/injection, schedule: Q01DX009 (ip), vehicle: saline with Tween-80
# [4] = dose: 200.0 mg/kg/injection, schedule: Q01DX009 (ip), vehicle: saline with Tween-80
structure (smiles),measurement,setting,value
C=CC(=O)Oc1ccc([N+](=O)[O-])cc1,survivor count,"dose: 100.0 mg/kg/injection, schedule: Q01DX009 (ip), vehicle: saline",6 of 6
same,survivor count,"dose: 100.0 mg/kg/injection, schedule: Q04DX003 (ip), vehicle: saline",2 of 6
same,survivor count,"dose: 200.0 mg/kg/injection, schedule: Q01DX009 (ip), vehicle: saline",0 of 6
same,survivor count,"dose: 400.0 mg/kg/injection, schedule: Q01DX009 (ip), vehicle: saline",0 of 6
C=CCN1CCCCC1C1(c2ccccc2)CCCC1 (stereo unspecified),survivor count,"dose: 150.0 mg/kg/injection, schedule: Q01DX001 (ip), vehicle: acid diluted with saline",2 of 6
same,survivor count,"dose: 300.0 mg/kg/injection, schedule: Q01DX001 (ip), vehicle: acid diluted with saline",0 of 6
COc1cc(C[N+]23CC[N+](Cc4cc(OC)cc(OC)c4)(CC2)C3)cc(OC)c1,survivor count,"dose: 100.0 mg/kg/injection, schedule: Q01DX001 (ip), vehicle: saline",0 of 4
same,survivor count,[1],0 of 4
same,survivor count,[2],0 of 4
O=C(O)/C(Cl)=C(/Cl)C(Cl)=C(Cl)Cl,survivor count,[3],4 of 6
same,survivor count,[4],0 of 6
OCC(I)CO,survivor count,[1],2 of 4
same,survivor count,[2],0 of 4
CC(=O)Nc1nc(Cl)c([N+](=O)[O-])c(SCc2ccccc2)n1,survivor count,"dose: 25.0 mg/kg/injection, schedule: Q01DX009 (ip), vehicle: saline with Tween-80",5 of 6
same,survivor count,"dose: 50.0 mg/kg/injection, schedule: Q01DX009 (ip), vehicle: saline with Tween-80",6 of 6
same,survivor count,[3],6 of 6
same,survivor count,[4],1 of 6
same,survivor count,"dose: 400.0 mg/kg/injection, schedule: Q04DX003 (ip), vehicle: saline with Tween-80",2 of 6
C[n+]1ccccc1/C=C/c1ccc(O)c(O)c1,survivor count,"dose: 150.0 mg/kg/injection, schedule: Q01DX001 (ip), vehicle: saline",2 of 6
O=C(NC(=S)Nc1cccc(F)c1)c1cccc([N+](=O)[O-])c1,survivor count,"dose: 400.0 mg/kg/injection, schedule: Q01DX001 (ip), vehicle: saline with Tween-80",3 of 6
Cc1cn[nH]c1-c1ccccc1,survivor count,"dose: 400.0 mg/kg/injection, schedule: Q04DX003 (ip), vehicle: Klucel (hydroxypropylcellulose) (HPC)",6 of 6
CC1CCOP(=O)(Sc2ccccc2)O1 (stereo unspecified),survivor count,"dose: 300.0 mg/kg/injection, schedule: Q04DX002 (ip), vehicle: Klucel (hydroxypropylcellulose) (HPC)",1 of 3
same,survivor count,"dose: 400.0 mg/kg/injection, schedule: Q04DX002 (ip), vehicle: Klucel (hydroxypropylcellulose) (HPC)",0 of 3
CCc1cccc(CC)c1N1C(=O)C=CC1=O,survivor count,"dose: 12.5 mg/kg/injection, schedule: Q04DX002 (ip), vehicle: other",3 of 3
same,survivor count,"dose: 25.0 mg/kg/injection, schedule: Q04DX002 (ip), vehicle: other",1 of 3
same,survivor count,"dose: 50.0 mg/kg/injection, schedule: Q04DX002 (ip), vehicle: other",0 of 3
same,survivor count,"dose: 100.0 mg/kg/injection, schedule: Q04DX002 (ip), vehicle: other",0 of 3
same,survivor count,"dose: 200.0 mg/kg/injection, schedule: Q04DX002 (ip), vehicle: other",0 of 3
same,survivor count,"dose: 400.0 mg/kg/injection, schedule: Q04DX002 (ip), vehicle: other",0 of 3
CCOC(=O)NC(NC(=O)OCC)c1ccc(Cl)cc1Cl,survivor count,"dose: 200.0 mg/kg/injection, schedule: Q01DX001 (ip), vehicle: carboxymethylcellulose (CMC)",4 of 4
CCOC(=O)CN1C(=O)CN=C(c2ccccn2)c2cc(Cl)ccc21,survivor count,"dose: 400.0 mg/kg/injection, schedule: Q01DX009 (ip), vehicle: saline with Tween-80",5 of 6
